These are yes or no findings as the source states them, for the method shown. Binding seen in cells or lysates may run through a third protein. Some binding calls cover weakened binding; strength is not graded here.

The chains behind the UniProt entries cited, without tags or fusion partners. Residues count along the entry.
UniProt P29590: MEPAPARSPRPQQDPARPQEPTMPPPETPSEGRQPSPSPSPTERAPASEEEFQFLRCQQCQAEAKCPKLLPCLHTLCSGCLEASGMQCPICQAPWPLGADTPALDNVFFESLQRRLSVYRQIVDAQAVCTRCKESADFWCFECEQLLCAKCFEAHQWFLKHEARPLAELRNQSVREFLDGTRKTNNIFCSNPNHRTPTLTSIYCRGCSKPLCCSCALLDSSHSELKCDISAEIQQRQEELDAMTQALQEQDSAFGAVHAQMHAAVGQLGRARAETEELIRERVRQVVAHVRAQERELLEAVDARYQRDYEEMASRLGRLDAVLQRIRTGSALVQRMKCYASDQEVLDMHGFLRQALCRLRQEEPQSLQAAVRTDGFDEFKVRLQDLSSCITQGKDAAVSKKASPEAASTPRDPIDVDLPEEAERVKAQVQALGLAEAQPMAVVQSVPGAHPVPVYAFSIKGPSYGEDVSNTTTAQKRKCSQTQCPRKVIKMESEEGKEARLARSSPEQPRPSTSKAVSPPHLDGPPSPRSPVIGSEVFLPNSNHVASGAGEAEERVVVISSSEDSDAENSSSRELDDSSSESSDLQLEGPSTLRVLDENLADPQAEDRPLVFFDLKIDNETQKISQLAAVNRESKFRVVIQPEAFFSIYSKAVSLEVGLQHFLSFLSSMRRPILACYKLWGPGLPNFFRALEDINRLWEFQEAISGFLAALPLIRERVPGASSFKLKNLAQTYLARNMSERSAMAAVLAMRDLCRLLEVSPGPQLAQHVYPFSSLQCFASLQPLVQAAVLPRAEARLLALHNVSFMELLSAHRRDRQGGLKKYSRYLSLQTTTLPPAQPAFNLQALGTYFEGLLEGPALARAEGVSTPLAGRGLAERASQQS
UniProt P19811, residues 1-260: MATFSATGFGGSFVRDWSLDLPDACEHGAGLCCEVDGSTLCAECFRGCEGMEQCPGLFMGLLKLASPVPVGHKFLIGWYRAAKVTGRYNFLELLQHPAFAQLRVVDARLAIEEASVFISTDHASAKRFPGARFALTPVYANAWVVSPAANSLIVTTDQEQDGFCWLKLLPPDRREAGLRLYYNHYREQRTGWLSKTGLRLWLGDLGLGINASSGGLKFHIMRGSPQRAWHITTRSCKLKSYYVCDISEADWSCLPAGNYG

Test [1] addresses promyelocytic leukemia (PML) protein, endogenous (human (endogenous in HeLa)) (UniProt P29590). In words: co-IP.
Test [2] has as its target GST-nsp1β fusion protein (PRRSV nsp1β) (PRRSV) (UniProt Q9WJB2). In words: pull-down.

Regarding “FLAG-nsp1 of equine arteritis virus (EAV) (from UniProt P19811 1-260)”, the binding entry in test [1] is “binds”. In the case of “promyelocytic leukemia (PML) protein, endogenous (from UniProt P29590 1-882)”, in test [2], the binding result was “binds”.

B1: F-nsp1α of PRRSV (protein, UniProt Q9WJB2 1-180)
chain: MSGILDRCTCTPNARVFMAEGQVYCTRCLSARSLLPLNLQVSELGVLGLFYRPEEPLRWTLPRAFPTVECSPAGACWLSAIFPIARMTSGNLNFQQRMVRVAAELYRAGQLTPAVLKALQVYERGCRWYPIVGPVPGVAVFANSLHVSDKPFPGATHVLTNLPLPQRPKPEDFCPFECAM
On to B1, for which the binding entry in test [1] is “no binding”.
